# Results published in article PMC11574045, “A cofactor-induced repressive type of transcription factor condensation can be induced by synthetic peptides to suppress tumorigenesis” (The EMBO Journal, 2024).
# Protein sequences, listed by entry. Tags and fused reporters are not part of them.
# UniProt Q15561: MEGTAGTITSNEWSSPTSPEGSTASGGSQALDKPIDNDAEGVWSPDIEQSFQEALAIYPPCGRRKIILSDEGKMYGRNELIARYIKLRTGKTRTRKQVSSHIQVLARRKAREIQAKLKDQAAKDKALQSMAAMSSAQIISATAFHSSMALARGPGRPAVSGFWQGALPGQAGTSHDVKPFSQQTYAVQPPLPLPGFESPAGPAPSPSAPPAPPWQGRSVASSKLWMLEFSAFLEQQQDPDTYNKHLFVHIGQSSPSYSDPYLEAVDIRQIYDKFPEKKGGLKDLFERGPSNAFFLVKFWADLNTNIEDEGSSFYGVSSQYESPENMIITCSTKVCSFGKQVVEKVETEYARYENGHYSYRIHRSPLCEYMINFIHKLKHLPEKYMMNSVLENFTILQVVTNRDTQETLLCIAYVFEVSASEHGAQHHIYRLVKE
# B1: EMSY (protein, UniProt Q7Z589 1-1322)
# chain: MPVVWPTLLDLSRDECKRILRKLELEAYAGVISALRAQGDLTKEKKDLLGELSKVLSISTERHRAEVRRAVNDERLTTIAHNMSGPNSSSEWSIEGRRLVPLMPRLVPQTAFTVTANAVANAAIQHNASLPVPAETGSKEVVCYSYTSTTSTPTSTPVPSGSIATVKSPRPASPASNVVVLPSGSTVYVKSVSCSDEDEKPRKRRRTNSSSSSPVVLKEVPKAVVPVSKTITVPVSGSPKMSNIMQSIANSLPPHMSPVKITFTKPSTQTTNTTTQKVIIVTTSPSSTFVPNILSKSHNYAAVTKLVPTSVIASTTQKPPVVITASQSSLVSNSSSGSSSSTPSPIPNTVAVTAVVSSTPSVVMSTVAQGVSTSAIKMASTRLPSPKSLVSAPTQILAQFPKQHQQSPKQQLYQVQQQTQQQVAQPSPVSHQQQPQQSPLPPGIKPTIQIKQESGVKIITQQVQPSKILPKPVTATLPTSSNSPIMVVSSNGAIMTTKLVTTPTGTQATYTRPTVSPSIGRMAATPGAATYVKTTSGSIITVVPKSLATLGGKIISSNIVSGTTTKITTIPMTSKPNVIVVQKTTGKGTTIQGLPGKNVVTTLLNAGGEKTIQTVPTGAKPAILTATRPITKMIVTQPKGIGSTVQPAAKIIPTKIVYGQQGKTQVLIKPKPVTFQATVVSEQTRQLVTETLQQASRVAEAGNSSIQEGKEEPQNYTDSSSSSTESSQSSQDSQPVVHVIASRRQDWSEHEIAMETSPTIIYQDVSSESQSATSTIKALLELQQTTVKEKLESKPRQPTIDLSQMAVPIQMTQEKRHSPESPSIAVVESELVAEYITTERTDEGTEVAFPLLVSHRSQPQQPSQPQRTLLQHVAQSQTATQTSVVVKSIPASSPGAITHIMQQALSSHTAFTKHSEELGTEEGEVEEMDTLDPQTGLFYRSALTQSQSAKQQKLSQPPLEQTQLQVKTLQCFQTKQKQTIHLQADQLQHKLPQMPQLSIRHQKLTPLQQEQAQPKPDVQHTQHPMVAKDRQLPTLMAQPPQTVVQVLAVKTTQQLPKLQQAPNQPKIYVQPQTPQSQMSLPASSEKQTASQVEQPIITQGSSVTKITFEGRQPPTVTKITGGSSVPKLTSPVTSISPIQASEKTAVSDILKMSLMEAQIDTNVEHMIVDPPKKALATSMLTGEAGSLPSTHMVVAGMANSTPQQQKCRESCSSPSTVGSSLTTRKIDPPAVPATGQFMRIQNVGQKKAEESPAEIIIQAIPQYAIPCHSSSNVVVEPSGLLELNNFTSQQLDDEETAMEQDIDSSTEDGTEPSPSQSSAERS
# B2: VGLL1 (protein, UniProt Q99990 1-258)
# chain: MEEMKKTAIRLPKGKQKPIKTEWNSRCVLFTYFQGDISSVVDEHFSRALSNIKSPQELTPSSQSEGVMLKNDDSMSPNQWRYSSPWTKPQPEVPVTNRAANCNLHVPGPMAVNQFSPSLARRASVRPGELWHFSSLAGTSSLEPGYSHPFPARHLVPEPQPDGKREPLLSLLQQDRCLARPQESAARENGNPGQIAGSTGLLFNLPPGSVHYKKLYVSRGSASTSLPNETLSELETPGKYSLTPPNHWGHPHRYLQHL
# B3: VGLL4 (protein, UniProt Q14135 1-290)
# chain: METPLDVLSRAASLVHADDEKREAALRGEPRIQTLPVASALSSHRTGPPPISPSKRKFSMEPGDEDLDCDNDHVSKMSRIFNPHLNKTANGDCRRDPRERSRSPIERAVAPTMSLHGSHLYTSLPSLGLEQPLALTKNSLDASRPAGLSPTLTPGERQQNRPSVITCASAGARNCNLSHCPIAHSGCAAPGPASYRRPPSAATTCDPVVEEHFRRSLGKNYKEPEPAPNSVSITGSVDDHFAKALGDTWLQIKAAKDGASSSPESASRRGQPASPSAHMVSHSHSPSVVS
# B4: FAM181A (protein, UniProt Q8N9Y4 1-354)
# chain: MPLEERRSSGERNDAAPTNHRRPGEKRASTAKQVSSVPFLGAAGHQQSLPSSWKASCSGPLVMASDSDVKMLLNFVNLASSDIKAALDKSAPCRRSVDHRKYLQKQLKRFSQKYSRLPRGLPGRAAEPYLKRGSEDRPRRLLLDLGPDSSPGGGGGCKEKVLRNPYREECLAKEQLPQRQHPEAAQPGQVPMRKRQLPASFWEEPRPTHSYHVGLEGGLGPREGPPYEGKKNCKGLEPLGPETTLVSMSPRALAEKEPLKMPGVSLVGRVNAWSCCPFQYHGQPIYPGPLGALPQSPVPSLGLWRKSPAFPGELAHLCKDVDGLGQKVCRPVVLKPIPTKPAVPPPIFNVFGYL
# B5: ARID3B (protein, UniProt Q8IVW6 1-561)
# chain: MEPLQQQQQQQQQQQKQPHLAPLQMDAREKQGQQMREAQFLYAQKLVTQPTLLSATAGRPSGSTPLGPLARVPPTAAVAQVFERGNMNSEPEEEDGGLEDEDGDDEVAEVAEKETQAASKYFHVQKVARQDPRVAPMSNLLPAPGLPPHGQQAKEDHTKDASKASPSVSTAGQPNWNLDEQLKQNGGLAWSDDADGGRGREISRDFAKLYELDGDPERKEFLDDLFVFMQKRGTPINRIPIMAKQILDLYMLYKLVTEKGGLVEIINKKIWREITKGLNLPTSITSAAFTLRTQYMKYLYAYECEKKALSSPAELQAAIDGNRREGRRPSYSSSLFGYSPAAATAAAAAGAPALLSPPKIRFPILGLGSSSGTNTSSPRISPATTLRKGDGAPVTTVPVPNRLAVPVTLASQQAGTRTAALEQLRERLESGEPAEKKASRLSEEEQRLVQQAFQRNFFSMARQLPMKIRINGRAEDRAEASAAALNLTTSSIGSINMSVDIDGTTYAGVLFAQKPVVHLITGSAPQSLGSSASSSSSSHCSPSPTSSRGTPSAEPSTSWSL
# B6: RFXANK (protein, UniProt O14593 1-260)
# chain: MELTQPAEDLIQTQQTPASELGDPEDPGEEAADGSDTVVLSLFPCTPEPVNPEPDASVSSPQAGSSLKHSTTLTNRQRGNEVSALPATLDSLSIHQLAAQGELDQLKEHLRKGDNLVNKPDERGFTPLIWASAFGEIETVRFLLEWGADPHILAKERESALSLASTGGYTDIVGLLLERDVDINIYDWNGGTPLLYAVRGNHVKCVEALLARGADLTTEADSGYTPMDLAVALGYRKVQQVIENHILKLFQSNLVPADPE
# B7: CTCF (protein, UniProt P49711 1-727)
# chain: MEGDAVEAIVEESETFIKGKERKTYQRRREGGQEEDACHLPQNQTDGGEVVQDVNSSVQMVMMEQLDPTLLQMKTEVMEGTVAPEAEAAVDDTQIITLQVVNMEEQPINIGELQLVQVPVPVTVPVATTSVEELQGAYENEVSKEGLAESEPMICHTLPLPEGFQVVKVGANGEVETLEQGELPPQEDPSWQKDPDYQPPAKKTKKTKKSKLRYTEEGKDVDVSVYDFEEEQQEGLLSEVNAEKVVGNMKPPKPTKIKKKGVKKTFQCELCSYTCPRRSNLDRHMKSHTDERPHKCHLCGRAFRTVTLLRNHLNTHTGTRPHKCPDCDMAFVTSGELVRHRRYKHTHEKPFKCSMCDYASVEVSKLKRHIRSHTGERPFQCSLCSYASRDTYKLKRHMRTHSGEKPYECYICHARFTQSGTMKMHILQKHTENVAKFHCPHCDTVIARKSDLGVHLRKQHSYIEQGKKCRYCDAVFHERYALIQHQKSHKNEKRFKCDQCDYACRQERHMIMHKRTHTGEKPYACSHCDKTFRQKQLLDMHFKRYHDPNFVPAAFVCSKCGKTFTRRNTMARHADNCAGPDGVEGENGGETKKSKRGRKRKMRSKKEDSSDSENAEPDLDDNEDEEEPAVEIEPEPEPQPVTPAPPPAKKRRGRPPGRTNQPKQNQPTAIIQVEDQNTGAIENIIVEVKKEPDAEPAEGEEEEAQPAATDAPNGDLTPEMILSMMDR
# Biological target: BirA-fused TEAD4 (human) (UniProt Q15561)
# Assay: proximity labelling; BioID: TEAD4-BirA in HEK293FT, in triplicate; biotin 500 μM; NETN lysis with micrococcal nuclease; streptavidin beads; label-free quantitative mass spectrometry
row,Binder,binding
1,B1,binds
2,B2,binds
3,B3,binds
4,B4,binds
5,B5,binds
6,B6,binds
7,B7,binds

# These are yes or no findings as the source states them, for the method shown. Binding seen in cells or lysates may run through a third protein. These calls come from enrichment with a bait or labelling near it, and not all partners need be listed.
